From PubChem BioAssay AID2685 (National Center for Advancing Translational Sciences (NCATS), 2010)
The campaign covered roughly 320,000 compounds. About 2,100 (0.66%) were called active. The shares of active, inactive and inconclusive entries below differ from those in the screen. Calls follow the shape of the dose curve; as a rule, active = well fitted inhibition curve with a large enough effect in the signal ratio, with a control signal flat (not every such curve was filed as active); inconclusive = small, poorly fitted or top-dose-only effect, or effect the other way, or a change in a side signal; inactive = flat fitted curve, though single readings scatter; the % refers to the signal ratio. A potency beside an inconclusive call is a rough fit, not a confirmed value.

assay: qHTS Assay for Lipid Storage Modulators in Drosophila S3 Cells; settings: BODIPY lipid droplet fluorescence, 18-24 h, cells fed with added oleic acid; lipid storage change, negative = inhibition: at 46.1 µM (top of the series) unless noted
Outline: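 Laser-scanning cytometry quantifies lipid droplet accumulation (500–530 nm total intensity; droplet/cell object ratio) in oleic acid-fed (400 uM added) Drosophila S3 cells treated with a concentration series. 20 uM Triacsin C defined 100% inhibition.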
% is scaled to controls: 0 for no effect and ±100 for the full control effect; potency is read from the fitted curve at half-maximal effect.

Row | SMILES | lipid storage change, negative = inhibition | Potency
1 | CCCCNC(=O)CCn1c(=S)[nH]c2cc3c(cc2c1=O)OCO3 | inconclusive: -29.2% | –
2 | O=C(NNC(=O)c1ccc(F)cc1)c1ccncc1 | – | inconclusive: 18.4 µM [activator, partial curve, poor fit]
3 | Cc1cccn2c(=O)c(C=Nc3ccccc3)c(NCc3ccco3)nc12 | inconclusive: -33.8% | –
4 | COc1ccc(NC2=CC(c3ccc(F)cc3)N(c3ccc(OC)cc3)C2=O)cc1 (stereo unspecified) | inconclusive: 30.5% [activator] | –
5 | O=C(C1=C(O)C(=O)N(CCCn2ccnc2)C1c1cccc(Br)c1)c1ccco1 (stereo unspecified) | – | inconclusive: 29.1 µM [activator, partial curve, poor fit]
6 | O=C(NNC(=O)c1c(O)c2ccccc2[nH]c1=O)c1ccccc1Br | inconclusive: 17.2% | –
7 | Cc1onc(-c2ccccc2)c1C(=O)NCc1ccccc1F | inconclusive: -21.4% | –
8 | CC(=O)CCc1c(C)[nH]c2ccc(NC(C)=O)cc2c1=O | inconclusive: -16% | –
9 | Cc1cc(/C=C2\SC(=S)N(Cc3ccco3)C2=O)c(C)n1-c1cccnc1 | – | active: 23.1 µM
10 | Cc1ccc(S(=O)(=O)N2CCCCC2)c(C)c1NS(C)(=O)=O | inconclusive: 0.279% | –
11 | CN(CC(=O)Nc1ccccc1Cl)C(=O)Cn1cnc2ccc(Cl)cc2c1=O | inconclusive: -2.35% | –
12 | Cc1cc(C(=O)C(C)Cl)c(C)n1Cc1ccco1 (stereo unspecified) | inconclusive: -39.4% | –
13 | CCN(c1ccccc1)S(=O)(=O)c1ccc(OC)c(NC(=O)Cc2ccc(OC)c(OC)c2)c1 | inconclusive: -18.9% | –
14 | O=C(Nc1cccc(-c2nc3ccccc3s2)c1)c1cc(-n2cnnc2)ccc1Cl | inconclusive: -13.3% | –
15 | Cc1cc(=O)n2c3ccccc3n(CC(O)CN3CCN(Cc4ccccc4)CC3)c2c1C#N (stereo unspecified) | inconclusive: -42.1% | –
16 | CC1CC1C(=O)OCC(=O)Nc1ccc2[nH]c(=O)[nH]c2c1 (stereo unspecified) | inconclusive: -36.9% | –
17 | CCOC(=O)C1=C(O)C(=O)N(c2ccc(S(N)(=O)=O)cc2)C1c1ccc(OC)cc1OC (stereo unspecified) | – | inconclusive: 1.84 µM [falling, partial curve]
18 | Cc1cccc(N2CCN(S(=O)(=O)c3ccc(-c4ccc(=O)[nH]n4)o3)CC2)c1C | – | inconclusive: 29.1 µM [rising, single point]
19 | OCC(O)C1OC(Nc2ccc(Cl)cc2)C(O)C1O (stereo unspecified) | inconclusive: -55.7% | –
20 | CCCC1(CCC)NC(=O)N(CC(=O)Nc2ccccc2OC)C1=O | inconclusive: -2.56% | –
21 | COCCN(CCOC)C(=O)c1ccc(NS(=O)(=O)c2ccc3[nH]c(=O)[nH]c3c2)cc1 | inconclusive: 20.2% | –
22 | O=C1COc2ccc(C(=O)NCc3ccc4c(c3)OCO4)cc2N1 | inconclusive: 60.6% | –
23 | CC(C)C(=O)Nc1cccc(C(=O)Nc2ccc(S(=O)(=O)N3CCOCC3)cc2)c1 | – | active: 13 µM
24 | CSc1ccc(-c2nc(CSCC(=O)NC3CC3)c(C)o2)cc1 | – | inconclusive: 2.91 µM [activator, single point]
25 | O=C(NCc1cccc(Cl)c1)c1cccc(S(=O)(=O)N2CCCC2)c1 | – | inconclusive: 29.1 µM [falling, single point]
26 | CCOC(=O)c1sc(NC(=O)CSc2nnnn2-c2ccc(C)c(C)c2)nc1C | – | inconclusive: 6.51 µM [falling, single point]

Row | SMILES | lipid storage change, negative = inhibition | Potency
27 | CCOCCn1c(SCc2cccc(C)c2)nc2c1c(=O)[nH]c(=O)n2C | – | inconclusive: 20.6 µM [activator, single point]
28 | COc1ccc(NC(=S)N(Cc2cccnc2)Cc2cc3cc(OC)c(OC)cc3[nH]c2=O)cc1 | inconclusive: 5.85% | –
29 | CCN1C(=O)C2(C(C(=O)c3ccc(C)o3)=C(O)C(=O)N2CCCN2CCOCC2)c2ccccc21 (stereo unspecified) | inconclusive: -48.3% | –
30 | CCC(=O)N1CCc2cc(S(=O)(=O)NCCC(=O)NC3CCCCCC3)ccc21 | – | inconclusive: 29.1 µM [falling, single point]
31 | Cc1cc2ncc(-c3ccccc3)nc2cc1C | inconclusive: -12.5% | –
32 | CSc1ccc(S(=O)(=O)N2CCC(C(=O)NCc3ccco3)CC2)cc1 | – | inconclusive: 6.51 µM [activator, single point]
33 | COc1ccc(S(=O)(=O)Nc2cc(Cl)ccc2-n2cncn2)cc1 | inconclusive: -46.2% | –
34 | Cc1ccccc1-c1oc(C)c(C)[n+]1[O-] | – | inconclusive: 4.61 µM [falling, single point]
35 | COc1ccc2c(c1)CC/C(=C\c1ccc(C)o1)C2=O | inconclusive: 13.8% | –
36 | CCN(CC)c1ccc(N=Cc2ccc(N(CC)CC)cc2O)cc1 | inconclusive: 43.1% | –
37 | O=C(CCn1c(=O)oc2ccccc21)Nc1cccc(Cl)c1 | inconclusive: 64.1% | –
38 | Cc1nc(SCC(=O)N(C)Cc2ccco2)c2c(C)c(C)sc2n1 | inactive: 14.1% | –
39 | CC(C)CC(=O)NC1(C(F)(F)F)C(=O)Nc2c1c(=O)n(C)c(=O)n2C (stereo unspecified) | – | active: 3.66 µM
40 | Cc1cc(C)c(S(=O)(=O)Nc2ccc(C(N)=O)cc2)c(C)c1 | inconclusive: 18.7% | –
41 | Clc1ccc(-c2ccc(C=Nc3ccc(N4CCOCC4)cc3)o2)c(Cl)c1 | inconclusive: 4.94% | –
42 | O=C(COc1ccc(Cl)cc1Cl)N/N=C/C1CC=CCC1 (stereo unspecified) | – | active: 1.84 µM
43 | COc1ccc(NC(=O)CCC(=O)N/N=C/c2ccc([N+](=O)[O-])s2)cc1 | inconclusive: -23.3% | –
44 | Cn1c(Cn2c(=O)sc3ccccc32)nnc1SCC(=O)NCc1ccc2c(c1)OCO2 | inconclusive: -24.4% | –
45 | CC1CCN(S(=O)(=O)c2ccc(NC(=O)CNC3CCCCC3)cc2)CC1 | inconclusive: 153% | –
46 | O=C(O)c1ccccc1SCc1csc(-c2ccccc2)n1 | – | inconclusive: 29.1 µM [falling, single point]
47 | O=C(NCCc1csc(-c2cccnc2)n1)c1ccco1 | inactive: 1.09% [at 9.22 µM] | –
48 | COc1ccc(C(=O)Nc2ccc(NC(=O)C3CCCCC3)nc2)cc1 | – | inconclusive: 29.1 µM [activator, single point]
49 | CN(CC(=O)Nc1ccc(C#N)cc1)Cc1ccc(Cl)cc1 | – | inconclusive: 5.17 µM [falling, full curve, poor fit]
50 | Cc1ccc(N(CC(=O)N2CCN(c3ccc(F)cc3)CC2)S(=O)(=O)c2c(C)noc2C)cc1 | inconclusive: 177% | –
51 | Cc1ccc(NC2=C(Cl)C(=O)c3ccccc3C2=O)cc1 | – | inconclusive: 6.51 µM [falling, single point]
52 | Cc1cccc(NC(=S)N2CCC(NC(=O)c3cccc(F)c3)CC2)c1 | – | inconclusive: 25.9 µM [rising, single point]

Row | SMILES | lipid storage change, negative = inhibition | Potency
53 | O=C(CSc1nnc(NC(=O)c2ccccc2Cl)s1)NC1CC1 | inconclusive: 74.5% | –
54 | CC1=N/C(=C/c2cc(Br)cc(Br)c2O)C(=O)O1 | inconclusive: 24.7% | –
55 | Cc1cc(C)n(-c2ncc3c(n2)N(C)CCOC3=O)n1 | inconclusive: 3.42% | –
56 | Cc1cc(C)c(NC(=O)Nc2ccc3c(c2)OCO3)c(C)c1 | – | inconclusive: 29.1 µM [activator, single point]
57 | O=C(NC1CCCC1)C(c1cccs1)N(C(=O)c1csnn1)c1ccccc1F (stereo unspecified) | – | inconclusive: 5.8 µM [falling, single point]
58 | Nc1c2c(nc3ccc(Br)cc13)N(Cc1ccccc1)CC2 | inconclusive: 5.14% | –
59 | Cc1cc(NC(=O)COC(=O)COc2cccc3c2OC(C)(C)C3)no1 | inconclusive: -34.6% | –
60 | N#C/C(=C\c1ccc(-c2nc3ccccc3s2)o1)C(N)=O | – | inconclusive: 0.92 µM [activator, partial curve, poor fit]
61 | CC(=O)NC(Cc1ccccc1)Cc1ccccc1 | inconclusive: -89.2% | –
62 | CCN1CCN(C(=O)CN(c2cccc(Br)c2)S(=O)(=O)c2ccccc2)CC1 | – | inconclusive: 0.103 µM [activator, full curve, poor fit]
63 | CCOC(=O)c1c(S(=O)(=O)NCc2ccc(OC)cc2)c(C)n(C)c1C | inconclusive: 86.3% | –
64 | O=C(NCCc1c[nH]c2ccccc12)c1ccc(F)cc1F | inconclusive: 5.92% | –
65 | Cc1ccn2c(CN(C)CCn3nc(C)cc3C)c(C(=O)N3CCCCCC3)nc2c1 | inconclusive: 12.8% | –
66 | CCOC(=O)NC(=O)C(=CNNc1ncc(C(F)(F)F)cc1Cl)C(=O)NC(=O)OCC | inconclusive: -21% | –
67 | CCOC(=O)C1(CC2CCCCO2)CCN(Cc2nc(C(C)C)cs2)CC1 (stereo unspecified) | inconclusive: -10.9% | –
68 | CCC(C)NC(=O)C1(NC(=O)Nc2ccccc2)CCCCC1 (stereo unspecified) | inconclusive: 40.9% | –
69 | CC(=O)Nc1cc(NC(C)=O)cc(C(=O)N2CCCC3CCCCC32)c1 (stereo unspecified) | – | inconclusive: 0.731 µM [activator, full curve]
70 | CCN(CC)C(=N)N1c2ccccc2CCC1C (stereo unspecified) | inconclusive: -19.7% | –
71 | NNC(=O)c1ccc(Cl)cc1Cl | – | inconclusive: 0.259 µM [rising, full curve, poor fit]
72 | O=C(CN(C(=O)CCC(=O)Nc1ccccn1)C1CCCC1)NCc1ccccc1 | – | inconclusive: 0.58 µM [falling, single point]
73 | Cc1nn(-c2ccccc2)c(C)c1/C=C/C(=O)OCC(=O)Nc1ccc(C(N)=O)cc1 | – | inconclusive: 29.1 µM [activator, single point]
74 | CN1[C@@H]2CC(OC(=O)[C@H](CO)c3ccccc3)C[C@H]1[C@@H]1O[C@@H]12 (stereo partly specified) | inconclusive: -18.7% | –
75 | CC(=O)c1ccc(S(=O)(=O)N(C)CC(=O)NCc2ccco2)cc1 | inconclusive: 35.3% | –
76 | CC(=O)NCCc1nc2ccccc2n1CCOc1ccc(C)cc1 | inconclusive: 10.9% | –

Random excerpt: 3 entries already listed, in no set order.
Row | SMILES | lipid storage change, negative = inhibition | Potency
54 | CC1=N/C(=C/c2cc(Br)cc(Br)c2O)C(=O)O1 | inconclusive: 24.7% | –
61 | CC(=O)NC(Cc1ccccc1)Cc1ccccc1 | inconclusive: -89.2% | –
58 | Nc1c2c(nc3ccc(Br)cc13)N(Cc1ccccc1)CC2 | inconclusive: 5.14% | –
